Experimental findings from US6107275A (Merrell Pharmaceuticals Inc., priority 1997, dated 2000) are described below.

The nature of this series: general procedure: Boc solid-phase peptide synthesis; oxime resin. The note with it: whole synthesis, CF3CO2H (TFA) salt.

Regarding “Cyclo[Ala.PSI.[CH2 NH]-Arg(N^g -Tos)-Gly-Asp(β-Chxl)-δ-Glu](α-NHBn)”, the crude mass was 269 mg. Moreover, the crude yield (scale of the general procedure 0.5 mmol) is reported as 68%.
